Measured values published in PubChem BioAssay AID445 (National Center for Advancing Translational Sciences (NCATS), 2006).
The list shows a part of the results. Further columns of the screen follow, without active or inactive calls. Most of these compounds were active or inconclusive in the main read-out, so they are no random draw. Words in brackets tell the shape of the fitted curve; partial curves, single points and poor fits give uncertain potencies.

Assay: IkB Signaling
Conditions: ABC-DLBCL IkBa-CBG/CBR dual luciferase ratio (green luciferase fused to IkBa over red control in OCI-Ly3 lymphoma cells), 4 h; measured here: control luc red channel unless noted
Summary of the method: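 Curves were fitted separately to fusion (green), unfused (red) and ratio luminescence, then classed by r2, magnitude and activity. Cells: OCI-Ly3, 4 h compound plus doxycycline at 37C; 10 uM MG-132 defined full response.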

Structure (SMILES)	AC50
CC(=O)c1cccc(NC(=O)C2CCCN(c3nnc(-n4cccc4)s3)C2)c1 (configuration not stated)	31.6 µM [falling, single point]
COC(=O)c1ccccc1NC(=O)C1CCCN(S(=O)(=O)c2ccc(OC)cc2)C1 (configuration not stated)	15.8 µM [falling, partial curve]
CCOC(=O)c1c(NC(=O)c2nn(CC)cc2Br)c(C#N)nn1-c1ccccc1	12.6 µM [falling, partial curve]
Cc1ccccc1-c1nc(CS(=O)(=O)CC(=O)N2CCN(c3ccccc3)CC2)c(C)o1	25.1 µM [falling, single point]
CCc1ccc2oc(-c3cccc(NC(=O)c4ccc(N5CCC(C)CC5)c([N+](=O)[O-])c4)c3)nc2c1	12.6 µM [falling, partial curve]
Cc1ccccc1CNC(=O)Cn1ncn2nc(-c3cccs3)cc2c1=O	0.0398 µM [rising, full curve]
CCOc1ccc(-c2nc(CSCC(=O)N3CCN(c4cccc(OC)c4)CC3)c(C)o2)cc1	10 µM [falling, partial curve]
Cc1cccc(CSc2cn(CC(=O)N3CCCC3)c3ccccc23)c1	15.8 µM [falling, partial curve]
CN(C)c1cc(O)c(C(=S)Nc2ccccc2)c(N(C)C)c1	15.8 µM [falling, partial curve]
Cc1cc(N2CCCCC2)nc2ccc(NC(=O)/C=C/c3ccccc3OC(C)C)cc12	1 µM [falling, partial curve]
Cc1ccc(NC(=O)c2oc3ccccc3c2NC(=O)c2cc3ccccc3o2)cc1	6.31 µM [falling, partial curve]
COC(=O)c1ccc(NC(=O)c2cc(S(=O)(=O)N3CCc4ccccc43)cn2C)cc1	25.1 µM [falling, partial curve]
CCOc1ccccc1NC(=O)Cn1cnc2onc(-c3ccc(F)cc3)c2c1=O	31.6 µM [falling, single point]
O=C(OCc1cc(=O)n2nc(C3CC3)sc2n1)c1ccc(F)cc1	12.6 µM [falling, partial curve]
COc1ccc(-n2c(=O)c3ccc(C(=O)NCc4ccc(C)cc4)cc3n(CC(=O)Nc3ccc(F)cc3)c2=O)cc1	10 µM [falling, full curve]
O=C(NCc1cccnc1)C1CCN(Cc2cc3ccccc3n2Cc2cccc(Cl)c2)CC1	31.6 µM [falling, single point]
CCOC(=O)c1cc(C)n(CC2CCC(C(=O)Nc3ccc(Cl)cc3)CC2)c1C (configuration not stated)	7.94 µM [falling, partial curve]
CCC1CCc2nc3sc(C(=O)Nc4ccc(F)cc4F)c(N)c3cc2C1 (configuration not stated)	15.8 µM [falling, partial curve]
O=C(Nc1ccc(CN2CCOCC2)cc1)c1cc2ccccc2o1	20 µM [falling, single point]
CC(=O)Nc1cccc(C(=O)NCc2ccc3c(c2)CCN3C(=O)c2ccccc2)c1	15.8 µM [falling, single point]
COc1cc(OC)c(NC(=O)NC(C)c2c(-n3cccc3)sc(C)c2C)cc1Cl (configuration not stated)	20 µM [falling, partial curve, poor fit]

Entries above that contain a thiophene ring, fused or not, in the order listed:
Structure (SMILES)	AC50
Cc1ccccc1CNC(=O)Cn1ncn2nc(-c3cccs3)cc2c1=O	0.0398 µM [rising, full curve]
CCC1CCc2nc3sc(C(=O)Nc4ccc(F)cc4F)c(N)c3cc2C1 (configuration not stated)	15.8 µM [falling, partial curve]
COc1cc(OC)c(NC(=O)NC(C)c2c(-n3cccc3)sc(C)c2C)cc1Cl (configuration not stated)	20 µM [falling, partial curve, poor fit]

Continuation:

Structure (SMILES)	AC50
Cc1ccc2cccc(NC(=O)c3ccc(-c4cccc([N+](=O)[O-])c4)o3)c2n1	5.01 µM [falling, full curve]
CCCCNC(=O)CSc1nc2nc(C)c(Cc3ccccc3C)c(C)n2n1	20 µM [falling, single point]
COc1cccc(C(=O)Nc2cc(-c3ccccc3)no2)c1	7.94 µM [falling, partial curve]
Cc1c(-c2nc(N)nc(Nc3ccccc3)n2)oc2ccccc12	0.00631 µM [falling, full curve, poor fit]
c1ccc2[nH]c(CSc3ncnc4c3oc3ccccc34)nc2c1	10 µM [falling, partial curve]
COc1ccc(/C=C/c2nc(C#N)c(NCCc3ccc(OC)c(OC)c3)o2)cc1OC	15.8 µM [falling, single point]
O=C(NCc1ccccc1)c1ccc2c(c1)CCN2S(=O)(=O)c1ccccc1	15.8 µM [falling, single point]
CCC(=O)Nc1ccc(-c2nnc3c4ccccc4c(C)nn23)cc1	15.8 µM [rising, single point]
Cc1ccc(NC(=O)CSc2nc(=O)n(CCCN(C)C)c3c2CCC3)cc1F	7.94 µM [rising, partial curve]
CCCCC(CC)CNC(=O)C1CCC(CNS(=O)(=O)c2cccc3nsnc23)CC1 (configuration not stated)	5.01 µM [falling, partial curve]
Cc1cc(C)cc(OCCCn2c(CCNC(=O)C3CCCCC3)nc3ccccc32)c1	15.8 µM [falling, partial curve]
CC1CCN(S(=O)(=O)c2ccc(C(=O)Nc3sc4c(c3C(N)=O)CC(C)(C)NC4(C)C)cc2)CC1	0.0398 µM [falling, full curve, poor fit]
Cc1cccc(C)c1-n1ncc(C(=O)N2CCN(c3ccccn3)CC2)c1C1CCN(C(=O)OC(C)(C)C)CC1	15.8 µM [falling, partial curve]
COC(=O)CN1C(=O)COc2ccc(Cl)cc21	10 µM [falling, partial curve]
COc1ccccc1NC(=O)N1CCc2[nH]c3ccc(Cl)cc3c2C1	3.98 µM [falling, partial curve]
O=C(Nc1ccc2c(c1)OCCO2)c1ccc(S(=O)(=O)N2CCCCC2)cc1	31.6 µM [falling, single point]
COc1cc(OC)c(NC(=O)NCc2ccc3c(c2)CCN3C(=O)c2ccccc2)cc1Cl	2 µM [falling, full curve]
Nc1nnc(SCC(=O)Nc2ccc(F)c(Cl)c2)n1-c1ccccc1	15.8 µM [falling, partial curve]
CCc1ccccc1NC(=O)CSc1nc(-c2ccccc2OC)nc2c1Cc1c(CO)cnc(C)c1O2	3.16 µM [falling, full curve, poor fit]
CC(=O)c1cc(C(=O)Nc2cc(C)cc(C)c2)c2ccccn12	20 µM [falling, partial curve, poor fit]
Cc1ccc2c(c1)cc1c(=O)n(CC(=O)NC3CCCCC3)nc(C)n12	25.1 µM [falling, partial curve]

Structure (SMILES)	AC50
O=C(CCSc1nc(-c2ccco2)cc(C(F)(F)F)n1)N1CCN(c2ccccn2)CC1	10 µM [falling, partial curve]
Cc1cccn2c(=O)c3cc(C(=O)NCc4ccccc4)c(=N)n(CCOCCO)c3nc12	25.1 µM [falling, partial curve]
O=C(Cn1cc(SCc2ccc(C(F)(F)F)cc2)c2ccccc21)N1CCCC1	20 µM [falling, partial curve]
CCOC(=O)N1CCC(NC(=O)c2cnn(-c3cccc(Cl)c3C)c2C2CCN(C(=O)OC(C)(C)C)CC2)CC1	39.8 µM [falling, single point]
COc1cccc(CN2CCc3nc(N4CCN(c5ncccn5)CC4)ncc3C2)c1	31.6 µM [falling, single point]
CSC1=C(C#N)C(c2ccc(Cl)cc2)C2=C(CC(C)(C)CC2=O)N1 (configuration not stated)	5.01 µM [falling, partial curve]
COc1cc(S(=O)(=O)N2CCN(Cc3ccccc3)CC2)ccc1Br	20 µM [falling, partial curve]
CC(=O)c1ccc(NC(=O)CSc2cn(CC(=O)N3CCCCCC3)c3ccccc23)cc1	12.6 µM [falling, partial curve]
COc1ccc(-c2cc(C(=O)NCc3ccc(F)cc3)c3c(-c4ccc(F)cc4)[nH]nc3n2)cc1OC	25.1 µM [falling, partial curve]
COc1ccc(NC(=O)CSc2oc(-c3ccco3)nc2S(=O)(=O)c2ccc(Br)cc2)c(OC)c1	12.6 µM [falling, partial curve]
CCc1ccc2oc(-c3cc(NC(=O)C(C)C)cc(C)c3O)nc2c1	15.8 µM [falling, partial curve]
CCn1ccc2cc(S(=O)(=O)N3CCC(C(=O)NCCc4ccc(C)cc4)CC3)ccc21	15.8 µM [falling, partial curve]
CCOC(=O)Cc1ccc(NS(=O)(=O)c2ccc(SC)cc2)cc1	10 µM [falling, partial curve]
CCC(C)NC(=O)c1ccc2nc(Cc3ccc(OC)cc3)oc2c1 (configuration not stated)	0.1 µM [rising, full curve]
COc1cc(OC)cc(C(=O)NCC(c2cccs2)S(=O)(=O)c2ccc(F)c(C)c2)c1 (configuration not stated)	39.8 µM [falling, single point]
COc1ccccc1NC(=O)CN1C(=O)C2(SCC(=O)N2c2ccc(C)c(C)c2)c2ccccc21 (configuration not stated)	2.51 µM [falling, full curve]
NS(=O)(=O)c1ccc(NC(=O)c2ccc3c(c2)CCN3S(=O)(=O)c2ccccc2)cc1	25.1 µM [falling, single point]
Cc1ccc(NC(=O)C(=O)NCC(c2cccnc2)N2CCN(C)CC2)cc1F (configuration not stated)	39.8 µM [falling, single point]
CCOc1ccc(NC(=O)Cn2ccn(-c3ccc(F)c(F)c3)c(=O)c2=O)cc1	39.8 µM [falling, single point]
COc1cccc(C(=O)Nc2ccc(-c3cn4cccnc4n3)cc2)c1OC	2.51 µM [rising, partial curve]
